34 targets from the supplement of paper PMC10849652 can be followed below.

Chains of the proteins cited; added tags and fusions are not shown. Lines headed by an entry give the natural chain unless they say otherwise; changes in a name come on top.
UniProt P28066: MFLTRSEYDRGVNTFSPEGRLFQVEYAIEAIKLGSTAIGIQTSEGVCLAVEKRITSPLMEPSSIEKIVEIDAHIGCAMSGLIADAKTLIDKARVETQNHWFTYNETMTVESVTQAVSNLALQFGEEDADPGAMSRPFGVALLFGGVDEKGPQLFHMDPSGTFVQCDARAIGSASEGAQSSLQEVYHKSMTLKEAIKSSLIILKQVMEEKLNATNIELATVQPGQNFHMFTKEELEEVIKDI
UniProt Q86TP1: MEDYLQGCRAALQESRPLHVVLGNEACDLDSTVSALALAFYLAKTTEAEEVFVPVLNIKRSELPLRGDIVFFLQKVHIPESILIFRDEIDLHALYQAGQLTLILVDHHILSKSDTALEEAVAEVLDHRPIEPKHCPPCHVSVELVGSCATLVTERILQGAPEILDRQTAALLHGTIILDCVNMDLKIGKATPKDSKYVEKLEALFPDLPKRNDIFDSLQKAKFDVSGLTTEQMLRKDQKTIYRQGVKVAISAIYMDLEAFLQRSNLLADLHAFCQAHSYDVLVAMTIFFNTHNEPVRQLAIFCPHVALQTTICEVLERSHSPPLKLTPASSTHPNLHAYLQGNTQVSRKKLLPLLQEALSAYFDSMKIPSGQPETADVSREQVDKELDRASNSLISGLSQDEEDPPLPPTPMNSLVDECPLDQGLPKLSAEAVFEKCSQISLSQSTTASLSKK
UniProt O60256: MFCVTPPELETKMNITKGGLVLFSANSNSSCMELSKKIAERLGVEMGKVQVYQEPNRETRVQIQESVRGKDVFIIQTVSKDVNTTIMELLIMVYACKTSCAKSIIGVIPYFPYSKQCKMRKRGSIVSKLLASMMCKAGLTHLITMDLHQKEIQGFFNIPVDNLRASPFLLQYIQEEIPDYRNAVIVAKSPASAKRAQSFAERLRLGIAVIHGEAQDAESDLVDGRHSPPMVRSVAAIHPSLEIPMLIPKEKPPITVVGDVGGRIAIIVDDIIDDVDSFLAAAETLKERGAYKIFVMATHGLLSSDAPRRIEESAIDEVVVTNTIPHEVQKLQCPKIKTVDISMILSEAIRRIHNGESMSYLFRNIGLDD
UniProt O14818: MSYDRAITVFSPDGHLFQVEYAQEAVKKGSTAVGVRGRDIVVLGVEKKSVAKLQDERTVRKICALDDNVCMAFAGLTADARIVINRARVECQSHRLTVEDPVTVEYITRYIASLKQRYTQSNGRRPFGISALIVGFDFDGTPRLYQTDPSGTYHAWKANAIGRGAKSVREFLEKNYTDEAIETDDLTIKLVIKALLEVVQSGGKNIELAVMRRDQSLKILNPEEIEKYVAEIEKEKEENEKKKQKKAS
UniProt P35998: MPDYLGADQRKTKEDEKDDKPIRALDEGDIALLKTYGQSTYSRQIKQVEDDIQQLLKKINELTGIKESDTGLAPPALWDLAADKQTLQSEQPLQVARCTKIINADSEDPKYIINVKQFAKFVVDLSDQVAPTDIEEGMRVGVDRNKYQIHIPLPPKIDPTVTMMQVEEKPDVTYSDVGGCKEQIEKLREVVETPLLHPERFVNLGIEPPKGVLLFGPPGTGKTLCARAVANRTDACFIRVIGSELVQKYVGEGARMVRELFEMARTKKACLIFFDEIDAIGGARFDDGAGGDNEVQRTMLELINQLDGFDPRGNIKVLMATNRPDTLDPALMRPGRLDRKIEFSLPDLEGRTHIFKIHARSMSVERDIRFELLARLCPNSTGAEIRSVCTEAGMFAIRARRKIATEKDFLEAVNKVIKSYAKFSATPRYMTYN
UniProt P07602: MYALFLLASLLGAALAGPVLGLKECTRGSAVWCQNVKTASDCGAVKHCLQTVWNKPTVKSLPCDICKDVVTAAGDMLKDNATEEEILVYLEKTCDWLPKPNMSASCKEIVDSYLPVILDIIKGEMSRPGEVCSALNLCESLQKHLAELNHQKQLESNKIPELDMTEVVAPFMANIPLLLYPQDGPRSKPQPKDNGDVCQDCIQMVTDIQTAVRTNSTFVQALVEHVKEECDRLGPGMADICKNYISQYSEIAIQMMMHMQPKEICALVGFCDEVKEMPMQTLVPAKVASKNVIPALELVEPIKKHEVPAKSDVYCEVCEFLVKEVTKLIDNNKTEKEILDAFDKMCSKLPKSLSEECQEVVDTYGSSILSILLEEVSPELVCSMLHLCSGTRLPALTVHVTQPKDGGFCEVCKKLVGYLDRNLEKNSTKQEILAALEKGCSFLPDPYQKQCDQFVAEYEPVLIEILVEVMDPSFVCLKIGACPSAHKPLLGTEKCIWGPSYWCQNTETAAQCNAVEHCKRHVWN
UniProt P20618: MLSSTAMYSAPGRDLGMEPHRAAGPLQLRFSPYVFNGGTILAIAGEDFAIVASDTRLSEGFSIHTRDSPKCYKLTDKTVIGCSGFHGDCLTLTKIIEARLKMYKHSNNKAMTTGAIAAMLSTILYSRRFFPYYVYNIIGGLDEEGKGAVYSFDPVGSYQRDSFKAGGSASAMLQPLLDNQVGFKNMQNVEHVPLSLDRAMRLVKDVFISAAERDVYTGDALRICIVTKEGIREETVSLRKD
UniProt Q96BW5: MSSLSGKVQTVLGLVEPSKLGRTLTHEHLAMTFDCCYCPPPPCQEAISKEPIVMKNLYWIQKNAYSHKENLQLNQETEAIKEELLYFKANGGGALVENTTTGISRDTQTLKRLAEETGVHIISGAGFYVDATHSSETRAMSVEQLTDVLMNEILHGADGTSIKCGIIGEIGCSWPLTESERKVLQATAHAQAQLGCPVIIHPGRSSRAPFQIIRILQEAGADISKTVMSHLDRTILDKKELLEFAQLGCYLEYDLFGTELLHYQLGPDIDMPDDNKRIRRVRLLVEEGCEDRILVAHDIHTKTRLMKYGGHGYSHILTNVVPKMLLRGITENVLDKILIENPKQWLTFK
UniProt P25786: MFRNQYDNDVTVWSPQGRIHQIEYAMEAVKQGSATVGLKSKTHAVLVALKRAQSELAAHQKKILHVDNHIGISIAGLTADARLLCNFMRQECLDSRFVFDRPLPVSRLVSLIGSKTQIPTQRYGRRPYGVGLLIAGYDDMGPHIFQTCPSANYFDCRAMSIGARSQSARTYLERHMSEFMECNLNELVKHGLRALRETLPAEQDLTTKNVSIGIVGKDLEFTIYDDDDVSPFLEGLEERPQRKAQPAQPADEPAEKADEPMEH
UniProt Q15185: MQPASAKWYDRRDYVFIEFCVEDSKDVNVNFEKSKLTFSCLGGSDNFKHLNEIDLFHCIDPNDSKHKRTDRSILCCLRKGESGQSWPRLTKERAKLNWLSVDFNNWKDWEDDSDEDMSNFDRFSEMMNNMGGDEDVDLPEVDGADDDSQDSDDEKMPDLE
UniProt Q9UL46, whole entry, looked up: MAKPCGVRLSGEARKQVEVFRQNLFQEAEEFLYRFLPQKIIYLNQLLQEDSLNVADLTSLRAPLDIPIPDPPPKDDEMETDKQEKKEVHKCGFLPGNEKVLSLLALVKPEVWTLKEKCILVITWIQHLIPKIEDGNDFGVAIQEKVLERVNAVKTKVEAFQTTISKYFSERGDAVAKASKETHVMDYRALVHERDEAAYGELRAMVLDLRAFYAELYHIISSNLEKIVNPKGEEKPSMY
UniProt O95456: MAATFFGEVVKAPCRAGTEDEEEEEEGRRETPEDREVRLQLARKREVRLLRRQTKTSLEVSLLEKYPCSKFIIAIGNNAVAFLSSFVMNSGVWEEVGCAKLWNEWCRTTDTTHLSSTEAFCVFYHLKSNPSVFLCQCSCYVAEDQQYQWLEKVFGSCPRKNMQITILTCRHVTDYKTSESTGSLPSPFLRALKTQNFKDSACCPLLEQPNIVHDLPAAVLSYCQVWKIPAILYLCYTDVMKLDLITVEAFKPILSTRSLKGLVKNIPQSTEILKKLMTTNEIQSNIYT
UniProt P25789: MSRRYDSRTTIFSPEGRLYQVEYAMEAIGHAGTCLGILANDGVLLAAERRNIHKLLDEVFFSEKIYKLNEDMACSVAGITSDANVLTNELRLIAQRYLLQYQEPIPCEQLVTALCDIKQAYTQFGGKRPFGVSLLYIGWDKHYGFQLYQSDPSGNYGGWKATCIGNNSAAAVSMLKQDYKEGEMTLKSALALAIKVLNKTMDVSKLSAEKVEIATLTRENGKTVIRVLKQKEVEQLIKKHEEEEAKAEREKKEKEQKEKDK
UniProt Q16401: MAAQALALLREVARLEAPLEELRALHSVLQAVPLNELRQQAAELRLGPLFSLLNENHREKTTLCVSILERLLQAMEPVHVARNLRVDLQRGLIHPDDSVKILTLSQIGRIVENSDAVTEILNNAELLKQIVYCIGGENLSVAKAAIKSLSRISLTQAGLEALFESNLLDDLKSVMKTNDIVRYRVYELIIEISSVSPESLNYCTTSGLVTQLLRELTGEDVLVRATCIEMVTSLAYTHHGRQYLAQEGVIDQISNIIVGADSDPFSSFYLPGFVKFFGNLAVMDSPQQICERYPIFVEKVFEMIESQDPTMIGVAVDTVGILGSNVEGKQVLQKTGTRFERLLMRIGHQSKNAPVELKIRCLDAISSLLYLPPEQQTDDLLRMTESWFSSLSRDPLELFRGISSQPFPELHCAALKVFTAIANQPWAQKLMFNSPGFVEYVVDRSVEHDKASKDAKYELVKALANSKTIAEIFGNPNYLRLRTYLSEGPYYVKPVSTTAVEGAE
UniProt P28074: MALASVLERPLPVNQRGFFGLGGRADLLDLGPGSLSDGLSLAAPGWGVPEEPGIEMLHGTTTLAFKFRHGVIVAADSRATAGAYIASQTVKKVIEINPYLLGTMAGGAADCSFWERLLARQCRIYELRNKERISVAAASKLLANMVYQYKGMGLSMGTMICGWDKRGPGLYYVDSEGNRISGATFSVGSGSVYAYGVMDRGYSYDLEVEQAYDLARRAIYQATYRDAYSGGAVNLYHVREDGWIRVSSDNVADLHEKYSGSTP
UniProt Q06323: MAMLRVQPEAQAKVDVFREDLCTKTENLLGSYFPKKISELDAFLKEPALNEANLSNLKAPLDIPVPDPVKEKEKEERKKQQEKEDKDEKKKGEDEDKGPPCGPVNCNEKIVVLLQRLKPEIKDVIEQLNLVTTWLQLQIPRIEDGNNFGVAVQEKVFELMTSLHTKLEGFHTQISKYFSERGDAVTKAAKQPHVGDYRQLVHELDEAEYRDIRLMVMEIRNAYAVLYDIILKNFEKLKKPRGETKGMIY
UniProt P29350: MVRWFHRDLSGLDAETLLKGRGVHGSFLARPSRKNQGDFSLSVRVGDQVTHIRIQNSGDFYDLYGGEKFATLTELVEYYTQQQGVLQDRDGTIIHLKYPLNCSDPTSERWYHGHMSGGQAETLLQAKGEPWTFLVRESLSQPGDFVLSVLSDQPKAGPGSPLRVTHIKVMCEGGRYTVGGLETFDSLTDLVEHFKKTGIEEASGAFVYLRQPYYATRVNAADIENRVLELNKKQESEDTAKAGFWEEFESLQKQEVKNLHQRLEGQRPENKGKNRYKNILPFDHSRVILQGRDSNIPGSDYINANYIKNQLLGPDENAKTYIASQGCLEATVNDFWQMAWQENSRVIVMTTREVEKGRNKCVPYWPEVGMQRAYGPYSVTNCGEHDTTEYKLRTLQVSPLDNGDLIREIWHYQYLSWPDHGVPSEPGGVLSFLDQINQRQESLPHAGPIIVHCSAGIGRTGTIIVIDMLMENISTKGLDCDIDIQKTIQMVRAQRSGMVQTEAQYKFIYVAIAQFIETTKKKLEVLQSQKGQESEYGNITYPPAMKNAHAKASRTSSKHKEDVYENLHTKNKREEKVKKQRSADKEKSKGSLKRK
UniProt P20962: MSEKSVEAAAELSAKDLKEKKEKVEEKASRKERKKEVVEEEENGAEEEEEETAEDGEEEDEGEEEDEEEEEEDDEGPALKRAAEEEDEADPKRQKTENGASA
UniProt P60900, whole entry, looked up: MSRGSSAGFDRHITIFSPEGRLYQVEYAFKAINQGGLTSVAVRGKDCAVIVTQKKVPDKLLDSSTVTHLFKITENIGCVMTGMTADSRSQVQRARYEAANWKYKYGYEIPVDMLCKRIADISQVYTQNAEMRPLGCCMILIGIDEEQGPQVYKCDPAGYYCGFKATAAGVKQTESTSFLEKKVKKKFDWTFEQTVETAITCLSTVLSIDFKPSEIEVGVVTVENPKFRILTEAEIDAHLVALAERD
UniProt P49721: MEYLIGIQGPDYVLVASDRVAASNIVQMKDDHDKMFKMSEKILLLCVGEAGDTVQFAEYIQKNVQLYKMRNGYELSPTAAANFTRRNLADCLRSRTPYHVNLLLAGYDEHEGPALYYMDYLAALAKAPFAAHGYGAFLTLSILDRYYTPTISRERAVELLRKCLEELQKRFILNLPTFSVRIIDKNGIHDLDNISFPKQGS
UniProt Q969U7: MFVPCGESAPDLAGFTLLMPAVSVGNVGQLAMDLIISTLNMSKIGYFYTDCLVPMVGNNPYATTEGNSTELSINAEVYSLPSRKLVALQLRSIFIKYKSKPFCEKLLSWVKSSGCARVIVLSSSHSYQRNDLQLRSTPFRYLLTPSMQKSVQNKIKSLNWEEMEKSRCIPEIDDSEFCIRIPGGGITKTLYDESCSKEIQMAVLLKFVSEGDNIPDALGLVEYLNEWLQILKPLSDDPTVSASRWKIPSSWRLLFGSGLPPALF

The list shows a part of the results.

Compound in one test: C=CC(=O)N1CCC[C@@H](n2nc(-c3ccc(Oc4ccccc4)cc3)c3c(N)ncnc32)C1 [ibrutinib]
As to the kind of experiment: log2 fold change, soluble protein after heating vs DMSO (PISA); higher = thermal stabilisation; K562 lysate, 10 uM; active = over 0.2 and 3.5 SD of the protein, either way, in both replicates (recomputed). The essentials: (§1)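 Soluble protein was defined as the supernatant remaining after 21,000xg for 90 min, following pooling of heated aliquots and adjustment to 0.5% NP-40 at 4°C. Before that, crude K562 extract at 1 mg/mL protein in PBS pH 7.4 with 1 mM MgCl2 was treated with 10 μM compound for 30 min and heated for 3 min across 48°C-58°C. Quantification used TMTpro 16plex LC-MS/MS with channel sums equalised, and values are log-two fold changes in thermal stability relative to solvent controls from duplicates.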
On to PSMA5 (UniProt P28066), for which the log2 fold change was inactive: -0.026.

As to PTBP1 (UniProt P26599), the log2 fold change is inactive: 0.02.

Take PTPN9 (UniProt P43378): the log2 fold change is inactive: -0.15.

In the case of PSTPIP2 (UniProt Q9H939), the log2 fold change was inactive: -0.019.

Regarding PRTFDC1 (UniProt Q9NRG1), the log2 fold change is inactive: -0.019.

As to PRUNE1 (UniProt Q86TP1), the log2 fold change was inactive: 0.073.

On to PRPSAP2 (UniProt O60256), for which the log2 fold change is inactive: 0.021.

As for PSMA7 (UniProt O14818), the log2 fold change is inactive: -0.015.

Take PSMC2 (UniProt P35998): the log2 fold change is inactive: -0.009.

On to PRPS1 (UniProt B1ALA9), for which the log2 fold change was inactive: -0.01.

For the target PSAP isoform 3 (UniProt P07602), the log2 fold change was inactive: 0.048.

Take PSME3 isoform 2 (UniProt P61289): the log2 fold change is inactive: -0.03.

With PSMB1 (UniProt P20618), the log2 fold change is inactive: -0.004.

Take PRRC2B (UniProt Q5JSZ5): the log2 fold change is inactive: 0.083.

Regarding PTER (UniProt Q96BW5), the log2 fold change is inactive: 0.014.

PSMA1 isoform 2 (UniProt P25786): the log2 fold change was inactive: -0.025.

Consider PRPF8 (UniProt Q6P2Q9), for which the log2 fold change was inactive: -0.017.

For the target PTGES3 (UniProt Q15185), the log2 fold change is inactive: 0.013.

Consider PSME2 (UniProt Q9UL46), for which the log2 fold change is inactive: -0.004.

Take PUS10 (UniProt Q3MIT2): the log2 fold change is inactive: -0.048.

Regarding PSMG1 (UniProt O95456), the log2 fold change was inactive: -0.028.

For the target PTPN1 (UniProt P18031), the log2 fold change is inactive: -0.003.

As to PSMA4 (UniProt P25789), the log2 fold change was inactive: -0.009.

Consider PSMD9 (UniProt O00233), for which the log2 fold change is inactive: -0.031.

Regarding PSMD5 (UniProt Q16401), the log2 fold change was inactive: -0.024.

As for PSIP1 (UniProt O75475), the log2 fold change was inactive: -0.045.

PSMB5 (UniProt P28074): the log2 fold change was inactive: -0.004.

With PSME1 (UniProt Q06323), the log2 fold change was inactive: 0.029.

On to PTPN6 isoform 4 (UniProt P29350), for which the log2 fold change is inactive: 0.051.

On to PUM1 isoform 3 (UniProt Q14671), for which the log2 fold change is inactive: -0.034.

Take PTMS (UniProt P20962): the log2 fold change is inactive: 0.025.

With PSMA6 (UniProt P60900), the log2 fold change is inactive: 0.02.

In the case of PSMB2 (UniProt P49721), the log2 fold change was inactive: 0.04.

In the case of PSMG2 (UniProt Q969U7), the log2 fold change is inactive: 0.017.

Compound in the next test: CC(=O)c1cnc2ccc(-c3cc(Cl)c(O)c(Cl)c3)nc2c1N[C@H]1CC[C@H](CN(C)C)CC1
Described as above. The gist of the method:
as §1
As to PSMA5 (UniProt P28066), the log2 fold change is inactive: -0.019.

PTBP1 (UniProt P26599): the log2 fold change was inactive: 0.006.

Regarding PTPN9 (UniProt P43378), the log2 fold change is inactive: 0.179.

Regarding PSTPIP2 (UniProt Q9H939), the log2 fold change was inactive: -0.037.

Consider PRTFDC1 (UniProt Q9NRG1), for which the log2 fold change is inactive: -0.008.

Turning to PRUNE1 (UniProt Q86TP1), the log2 fold change is inactive: 0.025.

Regarding PRPSAP2 (UniProt O60256), the log2 fold change is inactive: 0.032.

Regarding PSMA7 (UniProt O14818), the log2 fold change was inactive: 0.011.

PSMC2 (UniProt P35998): the log2 fold change was inactive: -0.009.

Consider PRPS1 (UniProt B1ALA9), for which the log2 fold change is inactive: -0.015.

For the target PSAP isoform 3 (UniProt P07602), the log2 fold change is inactive: -0.019.

For the target PSME3 isoform 2 (UniProt P61289), the log2 fold change is inactive: 0.007.

Consider PSMB1 (UniProt P20618), for which the log2 fold change is inactive: -0.003.

As to PRRC2B (UniProt Q5JSZ5), the log2 fold change is inactive: 0.027.

For the target PTER (UniProt Q96BW5), the log2 fold change is inactive: 0.034.

In the case of PSMA1 isoform 2 (UniProt P25786), the log2 fold change was inactive: 0.001.

As to PRPF8 (UniProt Q6P2Q9), the log2 fold change was inactive: -0.003.

In the case of PTGES3 (UniProt Q15185), the log2 fold change is inactive: -0.001.

For PSME2 (UniProt Q9UL46), the log2 fold change was inactive: -0.01.

In the case of PUS10 (UniProt Q3MIT2), the log2 fold change is inactive: 0.007.

Turning to PSMG1 (UniProt O95456), the log2 fold change was inactive: 0.019.

With PTPN1 (UniProt P18031), the log2 fold change is inactive: -0.024.

PSMA4 (UniProt P25789): the log2 fold change was inactive: -0.014.

PSMD9 (UniProt O00233): the log2 fold change is inactive: 0.008.

In the case of PSMD5 (UniProt Q16401), the log2 fold change was inactive: 0.008.

PSIP1 (UniProt O75475): the log2 fold change is inactive: -0.002.

As to PSMB5 (UniProt P28074), the log2 fold change is inactive: 0.007.

With PSME1 (UniProt Q06323), the log2 fold change is inactive: 0.019.

Turning to PTPN6 isoform 4 (UniProt P29350), the log2 fold change is inactive: -0.077.

Consider PUM1 isoform 3 (UniProt Q14671), for which the log2 fold change was inactive: 0.009.

With PTMS (UniProt P20962), the log2 fold change is inactive: -0.015.

For the target PSMA6 (UniProt P60900), the log2 fold change is inactive: -0.008.

With PSMB2 (UniProt P49721), the log2 fold change is inactive: -0.003.

On to PSMG2 (UniProt Q969U7), for which the log2 fold change was inactive: 0.014.

Compound in another test: CC(C)(C)Cn1c(N)nc2ccc(-c3[nH]c(C(C)(C)C)nc3-c3ccc(F)cc3)nc21 [ralimetinib]
The description is as above. The gist of the method:
as §1
Consider PSMA5 (UniProt P28066), for which the log2 fold change is inactive: 0.003.

Regarding PTBP1 (UniProt P26599), the log2 fold change is inactive: 0.007.

On to PTPN9 (UniProt P43378), for which the log2 fold change is inactive: -0.094.

As to PSTPIP2 (UniProt Q9H939), the log2 fold change is inactive: -0.024.

As for PRTFDC1 (UniProt Q9NRG1), the log2 fold change was inactive: -0.003.

Regarding PRUNE1 (UniProt Q86TP1), the log2 fold change is inactive: 0.007.

As to PRPSAP2 (UniProt O60256), the log2 fold change is inactive: 0.007.

On to PSMA7 (UniProt O14818), for which the log2 fold change was inactive: -0.012.

As for PSMC2 (UniProt P35998), the log2 fold change is inactive: 0.029.

In the case of PRPS1 (UniProt B1ALA9), the log2 fold change was inactive: -0.017.

Consider PSAP isoform 3 (UniProt P07602), for which the log2 fold change was inactive: -0.008.

PSME3 isoform 2 (UniProt P61289): the log2 fold change was inactive: -0.023.

For PSMB1 (UniProt P20618), the log2 fold change was inactive: 0.004.

For the target PRRC2B (UniProt Q5JSZ5), the log2 fold change is inactive: -0.019.

PTER (UniProt Q96BW5): the log2 fold change was inactive: -0.016.

As to PSMA1 isoform 2 (UniProt P25786), the log2 fold change was inactive: -0.008.

In the case of PRPF8 (UniProt Q6P2Q9), the log2 fold change is inactive: 0.019.

Regarding PTGES3 (UniProt Q15185), the log2 fold change was inactive: 0.004.

For PSME2 (UniProt Q9UL46), the log2 fold change was inactive: 0.025.

In the case of PUS10 (UniProt Q3MIT2), the log2 fold change is inactive: 0.051.

Take PSMG1 (UniProt O95456): the log2 fold change is inactive: -0.032.

Take PTPN1 (UniProt P18031): the log2 fold change was inactive: 0.018.

In the case of PSMA4 (UniProt P25789), the log2 fold change is inactive: -0.01.

For PSMD9 (UniProt O00233), the log2 fold change is inactive: -0.01.

For PSMD5 (UniProt Q16401), the log2 fold change is inactive: -0.011.

Consider PSIP1 (UniProt O75475), for which the log2 fold change was inactive: -0.019.

For the target PSMB5 (UniProt P28074), the log2 fold change was inactive: -0.002.

On to PSME1 (UniProt Q06323), for which the log2 fold change is inactive: 0.016.

Regarding PTPN6 isoform 4 (UniProt P29350), the log2 fold change was inactive: 0.045.

As for PUM1 isoform 3 (UniProt Q14671), the log2 fold change was inactive: 0.003.

Turning to PTMS (UniProt P20962), the log2 fold change was inactive: 0.003.

In the case of PSMA6 (UniProt P60900), the log2 fold change is inactive: 0.011.

With PSMB2 (UniProt P49721), the log2 fold change was inactive: -0.011.

For the target PSMG2 (UniProt Q969U7), the log2 fold change was inactive: -0.015.
